Assay results from US20140193405A1.
No constants are given. Whether binding was seen depends on the method and setting. Some entries that bind do so weakly or less than the wild type.

The chains behind the UniProt entries cited, without tags or fusion partners. Residues count along the entry.
UniProt P25942, residues 21-193: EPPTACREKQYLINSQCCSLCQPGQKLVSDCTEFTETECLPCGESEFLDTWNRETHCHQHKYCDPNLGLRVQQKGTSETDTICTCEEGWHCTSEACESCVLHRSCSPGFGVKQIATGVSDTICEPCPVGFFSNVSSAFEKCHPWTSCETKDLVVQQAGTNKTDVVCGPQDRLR

Biological target: CD40 (UniProt P25942)
Experiment: binding of serially diluted antibody to CD40 immobilised on microassay plates

Binder | binding
hu sgn-14 (antibody, V domains shown) VH: EVQLVESGGGLVQPGGSLRLSCAASGYSFTGYYIHWVRQAPGKGLEWVARVIPNNGGTSYNQKFKGRFTLSVDNSKNTAYLQMNSLRAEDTAVYYCAREGIYWWGQGTLVTVS VL: DIQMTQSPSSLSASVGDRVTITCRSSQSLVHSNGNTFLHWYQQKPGKAPKLLIYTVSNRFSGVPSRFSGSGSGTDFTLTISSLQPEDFATYYCSQTTHVPWTFGQGTKVEIKR | binds
hu sgn-18 (antibody, V domains shown) VH: EVQLVESGGGLVQPGGSLRLSCAASGYSFTGYYIHWVRQAPGKGLEWVARVIPNNGGTSYNQKFKGRATLSVDNSKNTAYLQMNSLRAEDTAVYYCAREGIYWWGQGTLVTVS VL: DIQMTQSPSSLSASVGDRVTITCRSSQSLVHSNGNTFLHWYQQKPGKAPKLLIYTVSNRFSGVPSRFSGSGSGTDFTLTISSLQPEDFATYFCSQTTHVPWTFGQGTKVEIKR | binds
hu sgn-19 (antibody, V domains shown) VH: EVQLVESGGGLVQPGGSLRLSCAASGYSFTGYYIHWVRQAPGKGLEWVARVIPNNGGTSYNQKFKGRFTLSVDNSKNTAYLQMNSLRAEDTAVYYCAREGIYWWGQGTLVTVS VL: DIQMTQSPSSLSASVGDRVTITCRSSQSLVHSNGNTFLHWYQQKPGKAPKLLIYTVSNRFSGVPSRFSGSGSGTDFTLTISSLQPEDFATYFCSQTTHVPWTFGQGTKVEIKR | binds
hu sgn-22 (antibody, V domains shown) VH: EVQLVESGGGLVQPGGSLRLSCAASGYSFTGYYIHWVRQAPGKGLEWVARVIPNAGGTSYNQKFKGRFTLSVDNSKNTAYLQMNSLRAEDTAVYYCAREGIYWWGQGTLVTVS VL: DIQMTQSPSSLSASVGDRVTITCRSSQSLVHSNGNTFLHWYQQKPGKAPKLLIYTVSNRFSGVPSRFSGSGSGTDFTLTISSLQPEDFATYYCSQTTHVPWTFGQGTKVEIKR | binds
hu sgn-23 (antibody, V domains shown) VH: EVQLVESGGGLVQPGGSLRLSCAASGYSFTGYYIHWVRQAPGKGLEWVARVIPNQGGTSYNQKFKGRFTLSVDNSKNTAYLQMNSLRAEDTAVYYCAREGIYWWGQGTLVTVS VL: DIQMTQSPSSLSASVGDRVTITCRSSQSLVHSNGNTFLHWYQQKPGKAPKLLIYTVSNRFSGVPSRFSGSGSGTDFTLTISSLQPEDFATYYCSQTTHVPWTFGQGTKVEIKR | binds
hu sgn-26 (antibody, V domains shown) VH: EVQLVESGGGLVQPGGSLRLSCAASGYSFTGYYIHWVRQAPGKGLEWVARVIPNAGGTSYNQKFKGRFTLSVDNSKNTAYLQMNSLRAEDTAVYYCAREGIYWWGQGTLVTVS VL: DIQMTQSPSSLSASVGDRVTITCRSSQSLVHSNGNTFLHWYQQKPGKAPKLLIYTVSNRFSGVPSRFSGSGSGTDFTLTISSLQPEDFATYFCSQTTHVPWTFGQGTKVEIKR | binds
hu sgn-27 (antibody, V domains shown) VH: EVQLVESGGGLVQPGGSLRLSCAASGYSFTGYYIHWVRQAPGKGLEWVARVIPNQGGTSYNQKFKGRFTLSVDNSKNTAYLQMNSLRAEDTAVYYCAREGIYWWGQGTLVTVS VL: DIQMTQSPSSLSASVGDRVTITCRSSQSLVHSNGNTFLHWYQQKPGKAPKLLIYTVSNRFSGVPSRFSGSGSGTDFTLTISSLQPEDFATYFCSQTTHVPWTFGQGTKVEIKR | binds
